Reference: the supplement of paper PMC4604168 (melanoma cell lines)
Some of the results follow. Repeats are few or missing, and single values can be far off.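 Imaging used 1,536-well plates; nuclei positive for cleaved PARP by antibody were divided by total DNA-stained nuclei to yield the apoptosis fraction. Doses for screening kept most cells viable, and cell lines differ markedly in resting and induced cleaved-PARP levels.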

Columns and labels:
Assay in all cases: cleaved PARP positive nuclei fraction relative to DMSO control; melanoma cells; higher = more apoptosis
Details in all cases: library dose: low library concentration; 72 h
WM115 = system: WM115
WM1716 = system: WM1716
WM1745 = system: WM1745
WM3526 = system: WM3526
WM3619 = system: WM3619
WM451Lu = system: WM451Lu

Row | Compound | cleaved PARP positive nuclei fraction (WM115) [%] | cleaved PARP positive nuclei fraction (WM1716) [%] | cleaved PARP positive nuclei fraction (WM1745) [%] | cleaved PARP positive nuclei fraction (WM3526) [%] | cleaved PARP positive nuclei fraction (WM3619) [%] | cleaved PARP positive nuclei fraction (WM451Lu) [%]
1 | COc1ccc(COc2ccc(Cc3cnc(N)nc3N)cc2OC)cc1 + CCCCCCCCCCCC1=C(O)C(=O)C=C(O)C1=O [Embelin] (first compound 1 µM, partner dose 1.2 µM) | 49.8 | 57.3 | 87 | 66.5 | 211 | 29.8
2 | CCN(CC)CCCCNc1ncc2cc(-c3cc(OC)cc(OC)c3)c(NC(=O)NC(C)(C)C)nc2n1 + Oc1cc(-c2nc(-c3ccccc3)[nH]c2-c2ccncc2)ccc1Cl [L779450] (first compound 0.1 µM, partner dose 0.2 µM) | 188 | 63.9 | 105 | 36.9 | 72 | 197
3 | Cn1cc(/C=C2\C(=O)Nc3cccnc32)c2ccccc21 + CC(C)CCN1c2nc(Nc3cc(F)c(O)c(F)c3)ncc2N(C)C(=O)C1C [BID1870] (first compound 0.4 µM, partner dose 0.2 µM) | 70 | 50.9 | 101 | 51.2 | 82.6 | 266
4 | CN(C)S(=O)(=O)c1ccc2c(c1)/C(=C/c1cc3c([nH]1)CCCC3)C(=O)N2 + COc1cc(N2CCC(N3CCN(C)CC3)CC2)ccc1Nc1ncc(Cl)c(Nc2ccccc2S(=O)(=O)C(C)C)n1 [NVP-TAE684] (first compound 0.4 µM, partner dose 0.08 µM) | 181 | 60.1 | 279 | 86.6 | 82.1 | 48.3
5 | COc1ccc(-c2ccc3c(N4CCOCC4)nc(N4C[C@@H](C)O[C@@H](C)C4)nc3n2)cc1CO + CCCCCCCCCCCC1=C(O)C(=O)C=C(O)C1=O [Embelin] (first compound 0.02 µM, partner dose 1.2 µM) | 129 | 98.4 | 104 | 63.8 | 82.9 | 161
6 | N#Cc1c(O)c2c(-c3ccc(-c4ccccc4O)cc3)csc2[nH]c1=O + c1cc(-c2cnn3cc(-c4ccc(OCCN5CCCCC5)cc4)cnc23)ccn1 [Dorsomorphin] (first compound 2 µM, partner dose 0.4 µM) | 180 | 132 | 103 | 266 | 84.6 | 114
7 | COc1ccc2c(c1)CCC1C2CCC2(C)C(NCCCCCCN3C(=O)C=CC3=O)CCC12 (stereo not given) + COc1ccc(-c2ccc3c(N4CCOCC4)nc(N4C[C@@H](C)O[C@@H](C)C4)nc3n2)cc1CO [KU0063794] (first compound 0.4 µM, partner dose 0.02 µM) | 67.4 | 119 | 113 | 161 | 108 | 65.9
8 | COc1cc2c(Oc3ccc4[nH]c(C)cc4c3F)ncnc2cc1OCCCN1CCCC1 [cediranib] + O=S(=O)(c1ccccc1)N(CC(F)(F)F)c1ccc(C(O)(C(F)(F)F)C(F)(F)F)cc1 [T0901317] (first compound 0.4 µM, partner dose 1.4 µM) | 86 | 70.9 | 117 | 119 | 93.9 | 127
9 | O=C(O)C(=O)Nc1sc2c(c1C(=O)O)CCNC2 + Cc1cc([N+](=O)[O-])ccc1NS(=O)(=O)c1cc(Cl)ccc1Cl [FH535] (first compound 1.66667 µM, partner dose 1 µM) | 105 | 82 | 125 | 74.2 | 178 | 74.2
10 | O=C1NC(=O)/C(=C/c2ccc(-c3ccc(F)cc3O)o2)S1 + Cc1cc([N+](=O)[O-])ccc1NS(=O)(=O)c1cc(Cl)ccc1Cl [FH535] (first compound 1 µM, partner dose 1 µM) | 250 | 175 | 111 | 138 | 86.8 | 63.7

Reformatted: entries from further up
Row,Compound,cleaved PARP positive nuclei fraction (WM115) [%],cleaved PARP positive nuclei fraction (WM1716) [%],cleaved PARP positive nuclei fraction (WM1745) [%],cleaved PARP positive nuclei fraction (WM3526) [%],cleaved PARP positive nuclei fraction (WM3619) [%],cleaved PARP positive nuclei fraction (WM451Lu) [%]
4,"CN(C)S(=O)(=O)c1ccc2c(c1)/C(=C/c1cc3c([nH]1)CCCC3)C(=O)N2 + COc1cc(N2CCC(N3CCN(C)CC3)CC2)ccc1Nc1ncc(Cl)c(Nc2ccccc2S(=O)(=O)C(C)C)n1 [NVP-TAE684] (first compound 0.4 µM, partner dose 0.08 µM)",181,60.1,279,86.6,82.1,48.3
7,"COc1ccc2c(c1)CCC1C2CCC2(C)C(NCCCCCCN3C(=O)C=CC3=O)CCC12 (stereo not given) + COc1ccc(-c2ccc3c(N4CCOCC4)nc(N4C[C@@H](C)O[C@@H](C)C4)nc3n2)cc1CO [KU0063794] (first compound 0.4 µM, partner dose 0.02 µM)",67.4,119,113,161,108,65.9
